Results on 42 sequences are retold here after article PMC7819943, “Rice protein-binding microarrays: a tool to detect cis-acting elements near promoter regions in rice”.

Amino acid sequences for entries named in this document (tags omitted).
UniProt Q0JBA9, entry or part of it: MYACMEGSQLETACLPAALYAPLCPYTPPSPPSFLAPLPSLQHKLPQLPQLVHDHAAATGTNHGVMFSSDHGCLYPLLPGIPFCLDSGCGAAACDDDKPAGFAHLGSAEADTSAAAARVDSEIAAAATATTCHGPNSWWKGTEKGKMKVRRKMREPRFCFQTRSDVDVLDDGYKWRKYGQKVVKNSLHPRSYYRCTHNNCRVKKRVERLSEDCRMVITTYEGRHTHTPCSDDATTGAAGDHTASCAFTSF

The list shows a part of the results.

For this test, the target named is OsWRKY34 (Oryza sativa, UniProt Q0JBA9 1-250). Briefly: protein-binding microarray (RPBM); PBS, 2% BSA, 51.3 ng/ul salmon testes DNA, 50 uM zinc acetate, 200 nM TF, 25 C, 1 h; high values mean tight binding. To be noted: protein: recombinant; tags: N-terminal polyhistidine and DsRed monomer fusion (pET32a); label: CyDye5-dUTP incorporated in the synthesized complementary strand; 3' TTTTT single-stranded linker to array surface; dsDNA, one strand shown. In short, it runs like this:
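For the binding signal, per-feature fluorescence intensity was read in arbitrary units on an Axon 4000B scanner. Before scanning, a 2% BSA-blocked custom Agilent array made double-stranded with Cy5-dUTP was washed after 1 h at 25 °C with 200 nM protein and 50 µM zinc acetate. The proteins were Ni–NTA-purified transcription factors with N-terminal polyhistidine and DsRed fusions, expressed in E. coli BL21-CodonPlus.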
For the sequence “ACGCGCAGCCACGAAGCATGGCCATCCACGATAACGTACCCGGAGTCACCTAGTGCAG”, the binding signal was 8320 fluorescence intensity (a.u.).
Next, “GTTGACCGTTGACCTTTTTGTGGGTCAACTCAATCAAGACCGGAGTCACCTAGTGCAG”: 16600 fluorescence intensity (a.u.); “CCCTAATATCACTCGACTACATTTTCATCCTCTTAGAATTCGGAGTCACCTAGTGCAG”: 8450 fluorescence intensity (a.u.).
In the case of “ATTTTTTTTATATTTGAATGGTATGCTCCATTGTTTTTTACGGAGTCACCTAGTGCAG” it was 11000 fluorescence intensity (a.u.).
Consider “CCGTTCGCTATCTCTTCTTCTCCTCTTCTCTCCCCTTCTCCGGAGTCACCTAGTGCAG”, for which the binding signal was 10000 fluorescence intensity (a.u.).
As to “TTATGTTTATATTATTGGGTAAAGGGAGTAGTGGGTATCACGGAGTCACCTAGTGCAG”, the binding signal was 8510 fluorescence intensity (a.u.).
With “ACGTTCTTGGCTGCATCCATCCCTTCGTCACTAAGGCAATCGGAGTCACCTAGTGCAG”, the binding signal is 12200 fluorescence intensity (a.u.).
In the case of “GACCTACGTCACCACCTTGCATGTCCCACGCGGAGCTCCACGGAGTCACCTAGTGCAG” it was 9230 fluorescence intensity (a.u.).
Turning to “TGGTTCCATGTCCTTATTTCAGTAGACCACGCTACTACGACGGAGTCACCTAGTGCAG”, the binding signal is 8970 fluorescence intensity (a.u.).
For “ACTCCATCACCACCACCCCACCTATATATCTCGCGGCCTCCGGAGTCACCTAGTGCAG”, the binding signal was 10400 fluorescence intensity (a.u.).
For the sequence “CCATTCGTGTCCGAAAACCCCTTTCGACATTCGGTCAAATCGGAGTCACCTAGTGCAG”, the binding signal was 8430 fluorescence intensity (a.u.).
On to “ACAAGTAGCCTCTATATGTTTGTGCCTAGATAGCGTCGTCCGGAGTCACCTAGTGCAG”, for which the binding signal was 8630 fluorescence intensity (a.u.).
In the case of “AATGGGAGGATGATGCTTAATGTTGACCAACTTTTCAAGCCGGAGTCACCTAGTGCAG”, the binding signal was 8190 fluorescence intensity (a.u.).
As for “ACACTTCCACATCACCACAATTCTTTTGCACCGTCCGATACGGAGTCACCTAGTGCAG”, the binding signal was 9010 fluorescence intensity (a.u.).
Next, “GAGTTCATAGTTTCATGCTCACCTTGTCATCTCCAGAGTTCGGAGTCACCTAGTGCAG”: 8650 fluorescence intensity (a.u.); “GAGAGGGGAGGGGAGGGGACAAGTATCGCGGAACCTGACCCGGAGTCACCTAGTGCAG”: 12900 fluorescence intensity (a.u.).
Regarding “ACCGCAGTTTAGCCATATCGCCGCCGCCGCCGCCGCCATGCGGAGTCACCTAGTGCAG”, the binding signal is 8440 fluorescence intensity (a.u.).
For the sequence “CTGTGCTACAAATCCGCTTTTCTCCTCTCTTCTTCTCATCCGGAGTCACCTAGTGCAG”, the binding signal was 9780 fluorescence intensity (a.u.).
“CCTCTCCCTCGTTTTTCGTGCGCATGCTTTTCAAACTGCTCGGAGTCACCTAGTGCAG”: the binding signal is 8730 fluorescence intensity (a.u.).
In the case of “ATATCGTATCAGCACGTTATTAGGTGGGGAGAGTGTTTTCCGGAGTCACCTAGTGCAG”, the binding signal was 8140 fluorescence intensity (a.u.).
In the case of “GATCAACCTCTGCAATTAGCCATCCCCACGTTCGATTAGCCGGAGTCACCTAGTGCAG” it was 9030 fluorescence intensity (a.u.); in that of “TTGTGTGGTGGGGCGCCTCAACTGAAGTTGCCAAAATGCTCGGAGTCACCTAGTGCAG”, 8220 fluorescence intensity (a.u.); in that of “CTCCAACTTGTTCGGTTGTGTCACCCCGGTCTCTAAACTTCGGAGTCACCTAGTGCAG”, 8530 fluorescence intensity (a.u.).
As to “TTCTCTGCAGTCTTTGCCCCATTTTCACATAATCTCCACACGGAGTCACCTAGTGCAG”, the binding signal is 11500 fluorescence intensity (a.u.).
Regarding “GTGTTATTTTGTCCGTAGCTGCACATGAAACTATAGCTACCGGAGTCACCTAGTGCAG”, the binding signal is 8100 fluorescence intensity (a.u.).
Consider “TCTTTCCTGGCCCGACCGACATCCCCACAGGAGATAACACCGGAGTCACCTAGTGCAG”, for which the binding signal is 10900 fluorescence intensity (a.u.).
Consider “AAAATAGCATTCATCCGTTGCAACGCACGGACATTTTCGTCGGAGTCACCTAGTGCAG”, for which the binding signal was 8050 fluorescence intensity (a.u.).
Consider “AGTTTGCGTTGTGTCATCCGTATTTGCAGTAACTCTTTTGCGGAGTCACCTAGTGCAG”, for which the binding signal is 10300 fluorescence intensity (a.u.).
With “GTTCTGCTAATCTGTAATGTTTCTTTTGTTTGTCATATCTCGGAGTCACCTAGTGCAG”, the binding signal was 8490 fluorescence intensity (a.u.).
For the sequence “GACCATCCCTATGCTCCACCCCACCGTCGCCCGCTCCGGCCGGAGTCACCTAGTGCAG”, the binding signal was 12300 fluorescence intensity (a.u.).
On to “ACTTTTTTCCTAATCAAACTTCTTCACGTTTGACTAAGTTCGGAGTCACCTAGTGCAG”, for which the binding signal is 9600 fluorescence intensity (a.u.).
Next, “AGTATATACTTTTGTTGATTGCATTCTTTCCTTTTCTTTTCGGAGTCACCTAGTGCAG”: 12000 fluorescence intensity (a.u.); “TTTGTGATGTGAAGGTCCGAAGGGTGTTTGGGAGATGGCACGGAGTCACCTAGTGCAG”: 8130 fluorescence intensity (a.u.); “AATGTATAGGTGGTCCCGTGCTTTTGTATTGTGTTTGCGTCGGAGTCACCTAGTGCAG”: 10400 fluorescence intensity (a.u.).
On to “ATCTCCATCTCTATGTGTTACTATGTTATGCGTGTATCGTCGGAGTCACCTAGTGCAG”, for which the binding signal was 9500 fluorescence intensity (a.u.).
“GCAAAGTGTCTCGCTCTCACTCTCACTCTCGAGCCATCGTCGGAGTCACCTAGTGCAG”: the binding signal was 10500 fluorescence intensity (a.u.).
As for “CTCTCTCTCTCTCTCTCGCACCACCGCTCTCTTCCGCCGCCGGAGTCACCTAGTGCAG”, the binding signal was 10800 fluorescence intensity (a.u.).
Consider “GCTGCTTGTTTGTTTCCCAATCTCTCATTTCTCTCTCTCACGGAGTCACCTAGTGCAG”, for which the binding signal is 14900 fluorescence intensity (a.u.).
In the case of “TCCAACGCGCCACACTATTGCCTCTTCTCATCACCACTCGCGGAGTCACCTAGTGCAG” it was 8860 fluorescence intensity (a.u.); in that of “GGGAAACTCTTCCGTCACCGCCTACCTCACCTCCTCCTACCGGAGTCACCTAGTGCAG”, 8430 fluorescence intensity (a.u.); in that of “TTAGTCGAAAAGTCAACGGTGTTATACATTAAAATACGGACGGAGTCACCTAGTGCAG”, 8390 fluorescence intensity (a.u.).
For “GCTGAATTTGTCTTTTTATATCTCGACGTGTGAGTTGAGTCGGAGTCACCTAGTGCAG”, the binding signal was 8590 fluorescence intensity (a.u.).
